Data published in patent EP1136503A1, “NOVEL PHYSIOLOGICALLY ACTIVE SUBSTANCE, PROCESS FOR PRODUCING THE SAME AND UTILIZATION THEREOF” (Takeda Chemical Industries, Ltd., priority 1998, dated 2001).
Part of at least one peptide drawing is inferred or uncertain, most often the ends. Where a SMILES comes first, the peptide text is derived from it. Bridges are numbered along the chain shown (N, C = ends).

Assays:
[1] = system: human SENR; experiment: GTPγS binding to human SENR-expression CHO cell membrane fraction; assay type: biochemical; conditions: peptide in various concentrations, 25°C 1 hour
[2] = system: human SENR; experiment: Arachidonic acid metabolite release from CHO/hSENR cell line; assay type: cell-based; conditions: CHO/hSENR cells, synthetic peptide in various concentrations, 37°C 30 minutes, vs buffer control (FIG. 11)
[3] = Blood pressure of rats under anesthesia; assay type: in vivo, Male Wistar rats; conditions: for Average blood pressure decreased: 10 nmols/kg intravenous, 8 rats, average + standard error; for blood pressure (hypotensive action): 1, 10 or 100 nmol/kg through left femoral vein
Description: The activity of the synthetic SENR ligand polypeptides ① and ② (SEQ ID NO:7 and SEQ ID NO:8) in various concentrations, which were synthesized in EXAMPLES 12 and 13, on blood pressure of rats under anesthesia was measured by the following method. Male Wistar rats of 8 to 9 weeks old (purchased from Nippon Crea Co.) were anesthetized with Nembutal injection (Dai-Nippon Pharmaceutical Co., 50 mg/ml sodium pentobarbital, 50 mg/kg i.p.). A catheter (SP-55) for blood pressure measurement connected with a transducer was inserted into the left carotid artery and a catheter (SP-35) for intravenous injection into the left femoral vein. The synthetic ligand was dissolved in physiological saline containing 0.05% BSA, which was cannulated through the left femoral vein in a dose of 1, 10 or 100 nmol/kg. The blood pressure was continuously recorded by means of a polygraph (manufactured by NEC Sanei Co.). […] The hypotensive action was shown by the average blood pressure reduced by administration of SENR ligand to the average blood pressure prior to administration. […]

[4] = system: human SENR; experiment: cAMP synthesis suppression in human SENR-expression CHO cells; assay type: cell-based; conditions: forskolin, CHO/hSENR cells
[5] = system: SENR; experiment: Arachidonic acid metabolite release from CHO/SENR cell line; assay type: cell-based, rat; conditions: CHO/SENR cells, synthetic peptide in various concentrations, 37°C 30 minutes, vs buffer control (FIG. 9)
[6] = system: rat thoracic aorta ring preparations; experiment: Vasoconstrictive action on rat thoracic aorta ring preparations; conditions: cumulative administration, final concentration 10^-10 to 10^-7 M (FIG. 10)

Compound	amount of [^35S]-guanosine 5'-(γ-thio)triphosphate bound to the membrane fraction [1]	arachidonic acid metabolite release activity [2]	Average blood pressure decreased [3]	amount of intracellular cAMP ([4]; increasing peptide concentration)	amount of intracellular cAMP ([4]; peptide 0.3 nM, 37°C 24 minutes)	arachidonic acid metabolite release activity [5]	blood pressure (hypotensive action) [3]	contraction of rat thoracic aorta ring preparation [6]
CC(C)[C@H](NC(=O)[C@@H]1CSSC[C@H](NC(=O)[C@H](CC(=O)O)NC(=O)[C@@H]2CCCN2C(=O)[C@@H](NC(=O)[C@@H](N)CCC(=O)O)[C@@H](C)O)C(=O)N[C@@H](Cc2ccccc2)C(=O)N[C@@H](Cc2c[nH]c3ccccc23)C(=O)N[C@@H](CCCCN)C(=O)N[C@@H](Cc2ccc(O)cc2)C(=O)N1)C(=O)O [Human SENR ligand, Glu-Thr-Pro-Asp-Cys-Phe-Trp-Lys-Tyr-Cys-Val]	dose-dependently increased	release of the arachidonic acid metabolites dependently on the peptide concentration	35.1 ± 5.7 mmHg	decreased dose-dependently	obviously reduced	–	–	–
CC(C)[C@H](NC(=O)[C@@H]1CSSC[C@H](NC(=O)[C@H](CCC(=O)O)NC(=O)[C@H](CO)NC(=O)[C@@H](NC(=O)[C@@H]2CCCN2C(=O)CN)[C@@H](C)O)C(=O)N[C@@H](Cc2ccccc2)C(=O)N[C@@H](Cc2c[nH]c3ccccc23)C(=O)N[C@@H](CCCCN)C(=O)N[C@@H](Cc2ccc(O)cc2)C(=O)N1)C(=O)O [Swine SENR ligand ①, Gly-Pro-Thr-Ser-Glu-Cys-Phe-Trp-Lys-Tyr-Cys-Val] (H-GPTSECFWKYCV-OH; disulfide 6-11)	–	–	34.3 ± 4.6 mmHg	–	–	released dependently on the peptide concentration	decreased dose-dependently	–
CC(C)[C@H](NC(=O)[C@@H]1CSSC[C@H](NC(=O)[C@H](CCC(=O)O)NC(=O)[C@H](CO)NC(=O)[C@@H]2CCCN2C(=O)[C@@H]2CCCN2C(=O)CN)C(=O)N[C@@H](Cc2ccccc2)C(=O)N[C@@H](Cc2c[nH]c3ccccc23)C(=O)N[C@@H](CCCCN)C(=O)N[C@@H](Cc2ccc(O)cc2)C(=O)N1)C(=O)O [Swine SENR ligand ②, Gly-Pro-Pro-Ser-Glu-Cys-Phe-Trp-Lys-Tyr-Cys-Val] (H-GPPSECFWKYCV-OH; disulfide 6-11)	–	–	35.3 ± 3.1 mmHg	–	–	released dependently on the peptide concentration	decreased dose-dependently	dose-dependently contracted
